49 compounds from the supplement of paper PMC5711842 can be followed below.

The experiment has as its system Danio rerio embryo. As to the kind of experiment: lowest lethal concentration (of 2, 10, 50 µM tested), 10-36 hpf treatment; higher = less toxic. The following applies: treatment window: 10-36 hpf.

Structures can show the parent of a compound that is named as a salt. Single values of this set are uncertain.

`COc1cc2c(c(OC)c1OC)-c1ccc(OC)c(=O)cc1C(NC(C)=O)CC2` (centres undefined) [Colchine] had a lowest lethal concentration greater than 50 µM. Turning to `O=C(c1cc2cc(O)ccc2[nH]1)c1cc2cc(O)ccc2[nH]1` [Flt-3 Inhibitor II], the lowest lethal concentration was greater than 50 µM. The same measure for `COc1ccc(C(=O)Nc2sc3c(c2C(N)=O)CCCC3)cc1OC` [Flt-3 Inhibitor]: greater than 50 µM; for `O=C(O)CN1C(=O)c2cccc3cccc(c23)C1=O` [Alrestatin]: greater than 50 µM; for `Cc1ccccc1N=Nc1ccc(NC(=O)c2ccnn2C)c(C)c1`: greater than 50 µM. The same measure for `Nc1nccc(-c2c(-c3ccc(F)cc3)ncn2C2CCNCC2)n1`: greater than 50 µM. The same measure for `CCOC(=O)c1c(C)[nH]c(C=C2C(=O)Nc3ccccc32)c1C` [VEGFR2 Kinase Inhibitor I]: greater than 50 µM. The compound `COC[C@H]1OC(=O)c2coc3c2[C@@]1(C)C1=C(C3=O)[C@@H]2CCC(=O)[C@@]2(C)C[C@H]1OC(C)=O` [Wortmannin] registered a lowest lethal concentration of 50 µM. As for `CC(/C=C/c1cccc(Oc2ccc(F)cc2)c1)N(O)C(N)=O` (centres undefined) [BW B70C], the figure is greater than 50 µM; as for `CCc1cc(-c2n[nH]c(C)c2-c2ccc3c(c2)OCCO3)c(O)cc1O`, greater than 50 µM; as for `CN(C)CCCn1cc(C2=C(c3c[nH]c4ccccc34)C(=O)NC2=O)c2ccccc21` [Bisindolylmaleimide I HCl], greater than 50 µM. The same measure for `CC(C)(C)c1nc2c3cc[nH]c(=O)c3c3cc(F)ccc3c2[nH]1` [Pyridone 6]: greater than 50 µM. The same measure for `Cc1cncc2cccc(S(=O)(=O)N3CCCN(C(=O)CN)C[C@@H]3C)c12` [Rho Kinase Inhibitor IV]: greater than 50 µM; for `O=c1[nH]c(=S)[nH]c(-c2ccccc2)c1Cc1c(O)ccc2ccccc12` [Cambinol]: greater than 50 µM. As to `CC(=O)c1ccc2c(c1)[C@@H]1C=CC[C@@H]1[C@H](c1cc3c(cc1Br)OCO3)N2` [G-1], the lowest lethal concentration is greater than 50 µM. The same measure for `NC(=NN=Cc1ccc(-c2cccc([N+](=O)[O-])c2)o1)N[N+](=O)[O-]` [ERK Inhibitor III]: greater than 50 µM; for `COc1cc2ncnc(Nc3ccc(O)c(Br)c3)c2cc1OC` [WHI-P154]: greater than 50 µM. Consider `CCC(C)C(COC(Cc1ccccc1)C(=O)NC(CCS(C)(=O)=O)C(=O)OC(C)C)NCC(N)CS` [L-744,832], for which the lowest lethal concentration was greater than 50 µM. The same measure for `c1cc(CN2CCCNCCNCCCNCC2)ccc1CN1CCCNCCNCCCNCC1` [Bicyclam]: greater than 50 µM; for `CC(C)n1nnc2cc(C(=O)O)ccc21` [GPR109b Agonist]: greater than 50 µM; for `O=C(C=Cc1ccccc1)NC(NC(=S)Nc1ccc(Cl)cc1)C(Cl)(Cl)Cl` (centres undefined) [Sal003]: greater than 50 µM. In the case of `NS(=O)(=O)c1ccc(NC(=O)C(C(F)(F)F)C(F)(F)F)cc1` [Hdm2 E3 Ligase Inhibitor], the lowest lethal concentration is greater than 50 µM. On to `CN(C)S(=O)(=O)c1ccc2c(c1)/C(=C/c1cc3c([nH]1)CCCC3)C(=O)N2` [SU6656], for which the lowest lethal concentration came to 50 µM. As for `Cc1nc(-c2ccccc2)c(-c2ccncc2)o1`, the figure is greater than 50 µM; as for `CC(C)c1nn(-c2c(Cl)cccc2Cl)c2nc(Cc3ccc(OCCO)cc3)[nH]c(=O)c12` [Cdk/Crk Inhibitor], 10 µM. `CCNC(=O)[C@H]1O[C@@H](n2cnc3c(N)ncnc32)[C@H](O)[C@@H]1O` [NECA] had a lowest lethal concentration greater than 50 µM. The same measure for `O=c1cc(-c2ccccc2)oc2cc(O)ccc12.O=c1cc(-c2ccccc2)oc2cc(O)ccc12.[Cl-].[Cl-].[Mn+2]` [Mn-cpx 3]: greater than 50 µM.

As for `COc1cc2ncn(-c3cc(OCc4ccc(S(C)(=O)=O)cc4)c(C(N)=O)s3)c2cc1OC` [Polo-like Kinase Inhibitor I], the lowest lethal concentration is greater than 50 µM. The same measure for `C/C(O)=C(\C#N)C(=O)Nc1cc(Br)ccc1Br` [LFM-A13]: greater than 50 µM.

Take `O=C(Nc1cccc(C(F)(F)F)c1)Nc1cc(Cl)ccc1C(=O)O` [NS3694]: the lowest lethal concentration was 50 µM. The same measure for `Cc1[nH]c(/C=C2\C(=O)Nc3ccc(S(=O)(=O)N(C)c4cccc(Cl)c4)cc32)c(C)c1C(=O)N1CCN(C)CC1`: greater than 50 µM; for `CSC[C@H]1O[C@@H](n2cnc3c(N)ncnc32)[C@H](O)[C@@H]1O` [Methylthioadenosine]: greater than 50 µM. For `O=[N+]([O-])/C=C/c1ccc2c(c1)OCO2` [Syk Inhibitor III], the lowest lethal concentration was greater than 50 µM. As for `CNC(=O)[C@@H](NC(=O)[C@H](CC(C)C)[C@H](O)C(=O)NO)C(C)(C)C` [Marimastat], the figure is greater than 50 µM; as for `c1ccc2c(c1)[I+]c1ccccc1-2` [Diphenyleneiodonium], greater than 50 µM. As for `COc1cc2ncnc(N3CCN(C(=O)Nc4ccc(Oc5ccccc5)cc4)CC3)c2cc1OC` [PDGFR Tyrosine Kinase Inhibitor III], the figure is greater than 50 µM. The same measure for `Cc1cc2occ(CN(C)CCN(C)Cc3cn(-c4cccc(C(F)(F)F)c4)c4ccccc34)c(=O)c2cc1C` [TNF-alpha Inhibitor]: 50 µM; for `O=C1C2CCN(CC2)C1(CO)CO` [PRIMA-1]: greater than 50 µM; for `Cc1cccc(NC(=O)Nc2ccc(-c3cccc4[nH]nc(N)c34)cc2)c1` [VEGFR2/Flt3/c-Kit Inhibitor]: greater than 50 µM. In turn, `O=S(=O)(O)c1ccc2cc(N=Nc3cc(S(=O)(=O)O)c4cccnc4c3O)ccc2c1` registered a lowest lethal concentration greater than 50 µM. `CCOC(=O)c1cn(-c2c(F)c(F)c(C#N)c(F)c2F)c2c(F)c(F)c(F)cc2c1=O` [STAT3 Inhibitor VII] came in with a lowest lethal concentration of 10 µM. The same measure for `Cc1cc(C(=O)N2CCN(c3cccc(Cl)c3)CC2)n(-c2ccccc2)n1` [XRP44X]: 10 µM; for `N#Cc1cc([N+](=O)[O-])c2sc(C(N)=O)[n+]([O-])c2c1` [BTO-1]: greater than 50 µM; for `O=c1c(-c2ccc(F)cc2)c(-c2ccncc2)[nH]n1-c1ccc(Cl)cc1` [p38 MAP Kinase Inhibitor]: greater than 50 µM. As to `Cc1ccc(NC(=O)c2cccc(N(C)C)c2)cc1NC(=O)c1ccc(O)cc1`, the lowest lethal concentration is greater than 50 µM. The same measure for `COC(=O)c1ccc(O)c(NC(=O)COc2ccc(C34CC5CC(CC(C5)C3)C4)cc2)c1` [HIF-1 Inhibitor]: greater than 50 µM; for `O=c1c2ccccc2[nH]c(=S)n1CCN1CCC(=C(c2ccc(F)cc2)c2ccc(F)cc2)CC1` [Diacylglycerol Kinase Inhibitor II]: greater than 50 µM; for `CN1CCN(CCCN2c3ccccc3Sc3ccc(C(F)(F)F)cc32)CC1` [Trifluoperazine]: greater than 50 µM. As for `COC(=O)[C@H](Cc1ccc(C#Cc2ccccc2)cc1)NC(=O)C[C@H]1CCCN(C(=N)N)C1` [Ro 26-4550 trifluoroacetate], the figure is greater than 50 µM.
